Patent US11642346B2, “Combination therapy for treating cancer” (Epizyme, Inc., priority 2017, dated 2023)
At least one structure is not confirmed: it was looked up by name or label, or the drawing left a doubt.

Tests used:
A204 cells = assay: Combination of tazemetostat with other agents, co-treatment model, luminescent cell viability (ATP) assay; format: cell-based; conditions: grown for seven days
Source text: (§1) Proliferation data was read for luminescence.

G401 cells = assay: as above; format: cell-based; conditions: grown for seven days
Source text: as §1

In the case of `C/C=C1\NC(=O)[C@H]2CSSCC/C=C/[C@H](CC(=O)N[C@H](C(C)C)C(=O)N2)OC(=O)[C@H](C(C)C)NC1=O` [Romidepsin], the “Combination treatment with tazemetostat, A204” value (A204 cells) is reported as “Additive” and the “Combination treatment with tazemetostat, G401” value (G401 cells) is reported as “Synergy”.
